# Results are given in words; binding and its absence hold for the method and conditions named. Binding seen in cells or lysates may run through a third protein. Some results given as binding are weak or reduced against the parent protein; the word gives no strength.
# Target: SBP-FGFR1 (wild type fibroblast growth factor receptor 1 tagged N-terminally with streptavidin binding peptide) (UniProt P11362)
# Test: proximity ligation; Duolink in situ PLA on cells fixed with 4% paraformaldehyde and permeabilised with 0.1% Triton (U2OS-SBP-R1.GF; U2OS-SBP-R1 in Figure S3)
row,Molecule,binding
1,Hsp90α (from UniProt P07900 1-732),binds weakly
2,"protein disulfide isomerase A4 (enzyme, UniProt P13667 21-645) VAGAEGPDEDSSNRENAIEDEEEEEEEDDDEEEDDLEVKEENGVLVLNDANFDNFVADKDTVLLEFYAPWCGHCKQFAPEYEKIANILKDKDPPIPVAKIDATSASVLASRFDVSGYPTIKILKKGQAVDYEGSRTQEEIVAKVREVSQPDWTPPPEVTLVLTKENFDEVVNDADIILVEFYAPWCGHCKKLAPEYEKAAKELSKRSPPIPLAKVDATAETDLAKRFDVSGYPTLKIFRKGRPYDYNGPREKYGIVDYMIEQSGPPSKEILTLKQVQEFLKDGDDVIIIGVFKGESDPAYQQYQDAANNLREDYKFHHTFSTEIAKFLKVSQGQLVVMQPEKFQSKYEPRSHMMDVQGSTQDSAIKDFVLKYALPLVGHRKVSNDAKRYTRRPLVVVYYSVDFSFDYRAATQFWRSKVLEVAKDFPEYTFAIADEEDYAGEVKDLGLSESGEDVNAAILDESGKKFAMEPEEFDSDTLREFVTAFKKGKLKPVIKSQPVPKNNKGPVKVVVGKTFDSIVMDPKKDVLIEFYAPWCGHCKQLEPVYNSLAKKYKGQKGLVIAKMDATANDVPSDRYKVEGFPTIYFAPSGDKKNPVKFEGGDRDLEHLSKFIEEHATKLSRTKEEL",binds weakly
3,"U4/U6.U5 tri-snRNP-associated protein 1 (protein, UniProt O43290 1-800) MGSSKKHRGEKEAAGTTAAAGTGGATEQPPRHREHKKHKHRSGGSGGSGGERRKRSRERGGERGSGRRGAEAEARSSTHGRERSQAEPSERRVKREKRDDGYEAAASSKTSSGDASSLSIEETNKLRAKLGLKPLEVNAIKKEAGTKEEPVTADVINPMALRQREELREKLAAAKEKRLLNQKLGKIKTLGEDDPWLDDTAAWIERSRQLQKEKDLAEKRAKLLEEMDQEFGVSTLVEEEFGQRRQDLYSARDLQGLTVEHAIDSFREGETMILTLKDKGVLQEEEDVLVNVNLVDKERAEKNVELRKKKPDYLPYAEDESVDDLAQQKPRSILSKYDEELEGERPHSFRLEQGGTADGLRERELEEIRAKLRLQAQSLSTVGPRLASEYLTPEEMVTFKKTKRRVKKIRKKEKEVVVRADDLLPLGDQTQDGDFGSRLRGRGRRRVSEVEEEKEPVPQPLPSDDTRVENMDISDEEEGGAPPPGSPQVLEEDEAELELQKQLEKGRRLRQLQQLQQLRDSGEKVVEIVKKLESRQRGWEEDEDPERKGAIVFNATSEFCRTLGEIPTYGLAGNREEQEELMDFERDEERSANGGSESDGEENIGWSTVNLDEEKQQQDFSASSTTILDEEPIVNRGLAAALLLCQNKGLLETTVQKVARVKAPNKSLPSAVYCIEDKMAIDDKYSRREEYRGFTQDFKEKDGYKPDVKIEYVDETGRKLTPKEAFRQLSHRFHGKGSGKMKTERRMKKLDEEALLKKMSSSDTPLGTVALLQEKQKAQKTPYIVLSGSGKSMNANTITK",binds weakly
